According to PMC4789793, “Noggin4 is a long-range inhibitor of Wnt8 signalling that regulates head development in Xenopus laevis” (Scientific Reports, 2016):
These are yes or no findings as the source states them, for the method shown. Binding seen in cells or lysates may run through a third protein. Some results given as binding are weak or reduced against the parent protein; the word gives no strength. Sequences can lack the tags named with a protein. Each block holds one molecule with its values, some of them ahead of it.

By UniProt entry, the sequences of proteins in these tests, tags left out. Residues count along the entry.
UniProt O93274, residues 24-581: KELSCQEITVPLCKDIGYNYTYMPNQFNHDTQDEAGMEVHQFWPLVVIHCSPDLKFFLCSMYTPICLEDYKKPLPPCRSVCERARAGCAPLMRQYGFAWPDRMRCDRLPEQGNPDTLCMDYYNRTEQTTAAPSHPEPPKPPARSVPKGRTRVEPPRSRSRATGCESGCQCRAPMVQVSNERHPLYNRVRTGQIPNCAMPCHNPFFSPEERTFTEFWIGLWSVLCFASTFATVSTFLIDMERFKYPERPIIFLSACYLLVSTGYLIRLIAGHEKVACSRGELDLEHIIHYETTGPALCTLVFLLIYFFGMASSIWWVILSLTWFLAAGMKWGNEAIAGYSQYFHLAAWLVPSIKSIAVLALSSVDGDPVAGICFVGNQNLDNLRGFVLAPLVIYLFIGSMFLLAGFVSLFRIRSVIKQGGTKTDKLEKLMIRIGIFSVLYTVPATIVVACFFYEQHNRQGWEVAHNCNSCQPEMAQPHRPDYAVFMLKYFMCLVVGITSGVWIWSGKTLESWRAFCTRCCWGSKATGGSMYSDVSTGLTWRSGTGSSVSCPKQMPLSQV

Key:
[1] = target: T1, Flag-Wnt8 (Xenopus laevis) (UniProt P28026); experiment: co-IP; crude extracts of mid-gastrula embryos injected at the 2-cell stage with Noggin4 and Wnt8 mRNA, alone or with increasing amounts of Frizzled8 mRNA
T1 sequence: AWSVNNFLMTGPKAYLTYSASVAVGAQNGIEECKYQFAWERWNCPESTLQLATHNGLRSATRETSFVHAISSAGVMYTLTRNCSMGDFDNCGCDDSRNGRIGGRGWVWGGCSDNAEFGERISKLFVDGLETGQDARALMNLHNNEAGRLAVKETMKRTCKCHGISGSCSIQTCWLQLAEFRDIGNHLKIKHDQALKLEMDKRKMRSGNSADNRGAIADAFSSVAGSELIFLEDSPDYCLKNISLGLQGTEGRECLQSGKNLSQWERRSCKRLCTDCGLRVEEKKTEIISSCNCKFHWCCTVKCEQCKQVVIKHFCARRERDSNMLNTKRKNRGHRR

[2] = target: T2, Myc-Noggin1 (Xenopus laevis) (UniProt P49011); experiment: co-IP; Myc-Noggin from conditioned medium of dissociated embryos bound on anti-MYC affinity gel and washed; concentrated conditioned medium with the Flag-tagged protein added, 4 °C overnight, CMFM + IP additives (0.1% NP40, glutathione); eluted with c-MYC peptide, Western blot; only the target purified
T2 sequence: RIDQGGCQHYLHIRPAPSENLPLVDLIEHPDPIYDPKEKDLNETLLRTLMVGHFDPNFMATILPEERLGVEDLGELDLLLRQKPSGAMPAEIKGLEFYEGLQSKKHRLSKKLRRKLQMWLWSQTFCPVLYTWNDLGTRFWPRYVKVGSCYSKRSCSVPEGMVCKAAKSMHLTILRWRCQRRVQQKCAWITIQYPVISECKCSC

binding [1]: binds
Molecule: Frizzled8 (from UniProt O93274 24-581) (receptor)

binding [2]: binds
B1: Flag-BMP4 (ligand, UniProt P30885 288-401)
chain: SPKQQRPRKKNKHCRRHSLYVDFSDVGWNDWIVAPPGYQAFYCHGDCPFPLADHLNSTNHAIVQTLVNSVNSSIPKACCVPTELSAISMLYLDEYDKVVLKNYQEMVVEGCGCR
